Results reported in PubChem BioAssay AID504467 (National Center for Advancing Translational Sciences (NCATS), 2011).
Screen size: about 330,000 compounds; about 7,700 (2.3%) were called active. This list was built around the results that the source calls inconclusive (neither active nor inactive); the mix of calls is not that of the screen. Calls come from the whole dose curve; as a rule, active = well fitted inhibition curve with a large enough effect; inconclusive = small, poorly fitted or top-dose-only effect, or effect the other way; inactive = flat fitted curve, though single readings scatter. A potency beside an inconclusive call is a rough fit, not a confirmed value.

experiment: qHTS screen for small molecules that inhibit ELG1-dependent DNA repair in human embryonic kidney (HEK293T) cells expressing luciferase-tagged ELG1; settings: HEK293T ELG1-luciferase reporter, luminescence, 16 h, DNA damage induced by 5-fluorouridine; activity change, negative = inhibition: at 46.1 µM (top of the series); note: nearly all actives have a fitted effect of over 55% in size
Method in brief: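 DMSO vehicle served as the neutral condition. Each well held 2,000 cells given 5-fluorouridine plus compound; after 16 hr at 37 °C/5% CO2, ONE-Glo was added and luciferase measured 30 min later.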
% is set by controls: 0 for no effect and ±100 for the full control effect; potency is the fitted concentration of half-maximal effect.

**Q.** For Cc1ccc(CNC(=O)CCc2c(C)nn(-c3ccc(N4CCOCC4)nn3)c2C)cc1, which “activity change, negative = inhibition” value is on record?
**A.** inactive: 11.6%

**Q.** For CC1=C(C#N)C(C)C2=C(CC(C)(C)CC2=O)N1 (configuration not stated), which Potency is on record?
**A.** inconclusive: 13 µM [inhibitor, partial curve]

**Q.** With CC(C)(C)C1CCC(=O)N(CCOc2ccccc2)CC1 (configuration not stated) as the compound, how does the Potency read?
**A.** inconclusive: 5.17 µM [activator, single point]

**Q.** Which “activity change, negative = inhibition” value does the source give for COc1cccc(C=Nc2cc(C)cc(C)c2)c1O here?
**A.** inactive: -9.05%

**Q.** Which Potency does the source give for COc1cccc(-c2nnc(NC(=O)C3CCCCC3)o2)c1 here?
**A.** inconclusive: 20.6 µM [activator, partial curve]

**Q.** With O=C1c2ccccc2C(=O)N1OCc1cccc(Cl)c1 as the compound, how does the Potency read?
**A.** inconclusive: 29.1 µM [activator, partial curve, poor fit]

**Q.** Which “activity change, negative = inhibition” value does the source give for O=c1[nH]c(CN(CCO)CCO)nc2c1C1(CCCCC1)Cc1ccccc1-2 here?
**A.** inactive: 1.85%

**Q.** With O=C(OCCNc1nc(-c2ccccc2)nc2ccccc12)c1cccnc1 as the compound, how does the Potency read?
**A.** inconclusive: 20.6 µM [inhibitor, single point]

**Q.** With Nc1nc(COC(=O)c2ccc3c(c2)OCCO3)nc(Nc2ccccc2)n1 as the compound, how does the “activity change, negative = inhibition” value read?
**A.** inactive: -22.1%

**Q.** For O=C(COc1ccccc1/C=C1\SC(=S)NC1=O)Nc1ccc(F)cc1, which Potency is on record?
**A.** inconclusive: 20.6 µM [inhibitor, partial curve]

**Q.** With O=C(CN1CCN(c2ccccn2)CC1)Nc1ccc2ccccc2c1 as the compound, how does the Potency read?
**A.** inconclusive: 14.6 µM [activator, single point]

**Q.** For Cc1ccc2nc(NC3=NC(CC(=O)O)C(=O)N3)nc(C)c2c1 (configuration not stated), which Potency is on record?
**A.** inconclusive: 23.1 µM [activator, partial curve, poor fit]

**Q.** With CCOC(=O)c1ccc(NC(=O)c2nc[nH]c2C(=O)NCCCCNC(=O)c2[nH]cnc2C(=O)Nc2ccc(C(=O)OCC)cc2)cc1 as the compound, how does the Potency read?
**A.** inconclusive: 0.92 µM [inhibitor, full curve, poor fit]

**Q.** With CCOc1ccc(NC(=O)CSc2nnc(-c3ccco3)n2N)cc1 as the compound, how does the “activity change, negative = inhibition” value read?
**A.** inactive: 20.6%

**Q.** Which Potency does the source give for O=c1[nH]c2ccccc2cc1-c1nnn(-c2ccc(F)cc2)n1 here?
**A.** inconclusive: 10.3 µM [activator, partial curve]

**Q.** For COc1ccc(/C=C2\COc3ccccc3C2=O)c(OC)c1, which Potency is on record?
**A.** inconclusive: 23.1 µM [activator, partial curve]

**Q.** With CCCc1nc2ccccc2c(=O)n1-c1c(C)n(C)n(-c2ccccc2)c1=O as the compound, how does the “activity change, negative = inhibition” value read?
**A.** inactive: -5.97%

**Q.** Which Potency does the source give for CCOC(=O)c1ccc2c(c1)nc(SCC(=O)c1cc3ccccc3o1)n2CC here?
**A.** inconclusive: 23.1 µM [activator, partial curve, poor fit]

**Q.** For COc1ccc(NC(=O)NCCN2CCN(c3cc(OC)ccc3OC)CC2)cc1, which “activity change, negative = inhibition” value is on record?
**A.** inactive: -14.8%

**Q.** Which “activity change, negative = inhibition” value does the source give for COc1ccc2cc3c(N)nn(C(=O)c4cccc(F)c4)c3nc2c1 here?
**A.** inactive: 0%

**Q.** With CC(C)(C)C(=O)COc1ccccc1[N+](=O)[O-] as the compound, how does the “activity change, negative = inhibition” value read?
**A.** inactive: -4.08%

**Q.** With C#Cc1ccc([C@H]2C=C(C(=O)NC3CC3)O[C@@H](OCC)[C@@H]2CCCO)cc1 as the compound, how does the “activity change, negative = inhibition” value read?
**A.** inactive: 25%

**Q.** For COc1ccc2[nH]c3c(c2c1)CCn1c-3nc2ccccc2c1=O, which Potency is on record?
**A.** inconclusive: 0.411 µM [activator, full curve]

**Q.** For COc1cc(C(=O)OCC(=O)Nc2ccc(SC(F)F)cc2)cc(OC)c1OC, which Potency is on record?
**A.** inconclusive: 25.9 µM [inhibitor, partial curve, poor fit]

**Q.** For COc1ccc(-c2cn3cccnc3n2)cc1NC(=O)C1CC1, which Potency is on record?
**A.** inconclusive: 29.1 µM [activator, single point]

**Q.** For Cc1cc(C(=O)CN2C(=O)NC3(CCCCC3)C2=O)c(C)n1C, which Potency is on record?
**A.** inconclusive: 23.1 µM [activator, single point]

**Q.** Which Potency does the source give for COC(=O)COc1cccc2c(=O)n(CC(=O)N3CCCc4ccccc43)ccc12 here?
**A.** inconclusive: 32.6 µM [inhibitor, single point]

**Q.** For O=C(Nc1nnc(C2CCCCC2)s1)c1cccs1, which Potency is on record?
**A.** inconclusive: 7.31 µM [activator, partial curve]

**Q.** For Cc1c(C(=O)OC2CCC(C)CC2)[nH]c2c1C(=O)CCC2 (configuration not stated), which Potency is on record?
**A.** inconclusive: 2.59 µM [activator, full curve]

**Q.** For CC(C)c1ccc(C(C(=O)NC2CCCCC2)N(C(=O)c2csnn2)C2CC2)cc1 (configuration not stated), which “activity change, negative = inhibition” value is on record?
**A.** inactive: -6.47%

**Q.** Which Potency does the source give for CCOC(=O)c1c(-c2ccccc2)csc1NC(=O)C(C)NCc1ccco1 (configuration not stated) here?
**A.** inconclusive: 16.4 µM [inhibitor, partial curve]

**Q.** With COC(=O)c1oc2ccc(Cl)cc2c1N as the compound, how does the Potency read?
**A.** inconclusive: 4.61 µM [activator, single point]

**Q.** Which Potency does the source give for COc1ccc(-c2oc3ccccc3c2C(=O)OCc2ccccc2)cc1 here?
**A.** inconclusive: 4.61 µM [activator, single point]

**Q.** Which Potency does the source give for COCCN(Cc1nc(-c2ccc(-c3ccccc3)cc2)oc1C)C(C)C here?
**A.** inconclusive: 1.83 µM [activator, partial curve]

**Q.** Which Potency does the source give for Clc1ccc(-c2nc3nc4ccccc4nc3n2Cc2ccco2)cc1 here?
**A.** inconclusive: 20.6 µM [activator, partial curve]

**Q.** Which Potency does the source give for CC1CCCCN1CCNC(=O)c1ccc2c(=O)n(Cc3ccc(Cl)cc3)c(=S)[nH]c2c1 (configuration not stated) here?
**A.** inconclusive: 25.9 µM [activator, single point]

**Q.** With COc1ccc(C(=O)/C=C/c2ccc(OC)c(Cn3nnc4ccccc43)c2)cc1 as the compound, how does the Potency read?
**A.** inconclusive: 23.1 µM [inhibitor, single point]

**Q.** With Nc1ccccc1C(=O)N/N=C1/C2CN3CCN(C2)CC1(Cc1ccccc1)C3 as the compound, how does the Potency read?
**A.** inconclusive: 23.1 µM [activator, single point]

**Q.** Which Potency does the source give for O=C(CN1CCN(Cc2ccccc2)CC1)Nc1ccc([N+](=O)[O-])cc1C(=O)Nc1ccccc1F here?
**A.** inconclusive: 3.66 µM [inhibitor, full curve]

**Q.** With CC(C)CC(=O)Nc1ccc2c(c1)oc1ccccc12 as the compound, how does the Potency read?
**A.** inconclusive: 8.2 µM [activator, partial curve]

**Q.** Which Potency does the source give for COc1ccc(NC(=O)c2cc3ccccc3o2)cc1S(=O)(=O)N1CCCCC1 here?
**A.** active: 20.6 µM

**Q.** Which Potency does the source give for COC(=O)C1(CCSC)NC(c2ccc(O)cc2)C2C(=O)N(c3ccc4c(c3)OCCO4)C(=O)C21 (configuration not stated) here?
**A.** inconclusive: 29.1 µM [inhibitor, partial curve, poor fit]

**Q.** Which “activity change, negative = inhibition” value does the source give for O=C(Nc1ccc(Cl)cc1N1CCOCC1)C1CCCCC1 here?
**A.** inactive: 9.88%

**Q.** With CCOc1ccc(N(CC(=O)NCCSCc2ccccc2)S(C)(=O)=O)cc1 as the compound, how does the “activity change, negative = inhibition” value read?
**A.** inactive: 9.06%

**Q.** With CCOC(=O)c1cnc(SSc2ncc(C(=O)OCC)c(N)n2)nc1N as the compound, how does the Potency read?
**A.** inconclusive: 3.55 µM [activator, single point]

**Q.** For CCOC(=O)N1CCN(C(=O)CSCc2ccc(Cl)cc2)CC1, which “activity change, negative = inhibition” value is on record?
**A.** inactive: -8.52%

**Q.** Which Potency does the source give for O=C(Nc1ccc(Cl)c(S(=O)(=O)N2CCOCC2)c1)c1cc(=O)[nH]c2ccccc12 here?
**A.** inconclusive: 29.1 µM [inhibitor, single point]

**Q.** With Cn1c(=O)n(C)c2cc([N+](=O)[O-])c(N3CCN(C(=O)c4ccccc4Cl)CC3)cc21 as the compound, how does the Potency read?
**A.** inconclusive: 11.6 µM [inhibitor, partial curve]

**Q.** Which Potency does the source give for Cc1ccc(C(=O)Nc2cccnc2Cl)cc1Cl here?
**A.** inconclusive: 9.2 µM [activator, partial curve]

**Q.** For CC(CN1CCOCC1)OC(=O)c1cccc(Br)c1 (configuration not stated), which Potency is on record?
**A.** inconclusive: 20.6 µM [activator, partial curve, poor fit]

**Q.** Which Potency does the source give for CCOc1ccccc1NC(=O)C(NCC1(N2CCCCC2)CCCCC1)c1ccccc1 (configuration not stated) here?
**A.** inconclusive: 18.3 µM [inhibitor, partial curve, poor fit]

**Q.** For C/C(=N/NC(=O)Cc1cccc2ccccc12)c1cccs1, which “activity change, negative = inhibition” value is on record?
**A.** inactive: 2.35%

**Q.** With CS(=O)(=O)c1ccc(-c2nnc(NC(=O)c3ccco3)o2)cc1 as the compound, how does the Potency read?
**A.** inconclusive: 8.91 µM [activator, partial curve, poor fit]

**Q.** Which Potency does the source give for O=C(NCCc1c[nH]c2ccccc12)c1cnc2sccn2c1=O here?
**A.** inconclusive: 8.2 µM [activator, partial curve]

**Q.** For CCn1nc(NC(=O)C2CCCO2)c2cc3cc(C)ccc3nc21 (configuration not stated), which Potency is on record?
**A.** inconclusive: 13 µM [activator, partial curve]

**Q.** With COc1ccc(/C=N/NC(=O)c2ccn[nH]2)cc1Cn1nc(C)c([N+](=O)[O-])c1C as the compound, how does the “activity change, negative = inhibition” value read?
**A.** inactive: 16.2%

**Q.** With N=c1oc2cc(O)ccc2cc1C(=O)Nc1nc2ccccc2s1 as the compound, how does the Potency read?
**A.** inconclusive: 5.17 µM [activator, partial curve]

**Q.** With Cc1nn2c(-c3ccccc3)ccnc2c1-c1ccccc1 as the compound, how does the Potency read?
**A.** inconclusive: 2.31 µM [activator, full curve]

**Q.** Which Potency does the source give for O=C(NCCc1ccccc1)C1CCCN(C(=O)Nc2ccc(F)cc2)C1 (configuration not stated) here?
**A.** inconclusive: 29.1 µM [inhibitor, single point]

**Q.** With Cc1nc2sccn2c(=O)c1CCN1CCC(=C(c2ccccc2)c2ccc(F)cc2)CC1 as the compound, how does the “activity change, negative = inhibition” value read?
**A.** inactive: -6.63%

**Q.** Which Potency does the source give for CC1CCCCN1C(=O)NC12CC3CC(CC(C3)C1)C2 (configuration not stated) here?
**A.** inconclusive: 18.4 µM [activator, partial curve, poor fit]

**Q.** With CCOc1ccnc2c1c(=O)n(Cc1cc(OC)cc(OC)c1)c(=O)n2C as the compound, how does the Potency read?
**A.** inconclusive: 23.1 µM [inhibitor, single point]

**Q.** Which Potency does the source give for COCC(=O)Nc1nc(-c2ccc(C)cc2)c(C)s1 here?
**A.** inconclusive: 14.6 µM [activator, single point]

**Q.** For CCC[C@@H](CN1CCC[C@H]1CN1C(N)=NC[C@@H]1Cc1ccccc1)N1C[C@@H]([C@H](C)CC)N(CCCC2CCCC2)C1=N, which Potency is on record?
**A.** inconclusive: 2.59 µM [inhibitor, partial curve]

**Q.** Which “activity change, negative = inhibition” value does the source give for CC(NC(=O)COC(=O)CNC(=O)c1ccccc1Cl)C1CC2CCC1C2 (configuration not stated) here?
**A.** inactive: -1.76%

**Q.** Which Potency does the source give for O=C(COC(=O)c1sc2ccccc2c1Cl)NC1CCCCC1 here?
**A.** inconclusive: 20.6 µM [activator, single point]

**Q.** For COc1cccc(C(=O)Nc2cc3c(cc2C(C)=O)OCCO3)c1, which Potency is on record?
**A.** inconclusive: 29.1 µM [inhibitor, single point]
